Columns and labels:
[1] = test system: thrombus material (DNA and proteins); settings: coated nitinol disks vs bare metal; thrombus slice 5 minutes at 37° C. in human plasma; Hoechst 33342 / Evans Blue staining
[2] = test system: extracellular chromatin (NETs); assay: Extracellular chromatin (NETs) binding to coated nitinol disks, Sytox Green staining; design: species or system human; settings: ratio of chromatin binding to platelet binding (% of max)
Description: Nitinol disks are left untouched (bare metal) or coated with the tested chromatin ligands following a polydopamine, DBCO-PEG4-amine and azide derivative ligand sequential dip-coating layering procedure.
Extracellular chromatin adhering to the disk surface was stained with the cell impermeant nuclear dye Sytox Green.
Each dot corresponds to the mean binding (% of max, mean±SEM) of chromatin (X-axis) and platelet (Y-axix) with the standard error bars parallel to the respective axis.
Different linkers were combined with piperaquine and the resulting azide derivatives were used for coating nitinol disks (N=6 for each compound), following the described 3-step dip-coating procedure. Platelet adhesion (left panel) was evaluated by analyzing the surface and intensity of the phalloidin staining (green fluorescence) after immersion of the disks (N^o=6/coating) for 10 min in blood withdrawn in PPAK (thrombin inhibitor providing a transient anticoagulation). The binding of extracellular chromatin was evaluated by applying for 3 minutes the disks on the bottom of wells in which fresh human neutrophils were stimulated with nigericin for 4 hours, to promote the formation of neutrophil extracellular traps (NETs). Extracellular chromatin was stained with the cell impermeant nuclear dye Sytox Green.

## O=C(O)c1cn(C2CC2)c2cc(N3CCNCC3)c(F)cc2c1=O [Ciprofloxacin, reference compound]
[1]
  DNA and proteins captured from the thrombus (Integrated Density): capture more DNA and proteins
[2]
  Chromatin/Platelet binding ratio: 0.86

— patent publication US20230241057A1, “COMPOUNDS FOR THE PREVENTION, TREATMENT AND DIAGNOSIS OF THROMBI” (INSERM (INSTITUT NATIONAL DE LA SANTÉ ET DE LA RECHERCHE …, priority 2020, published 2023)
